Among the data in PMC5192218 are binding values, retold here.

Sequences of proteins named here, by UniProt entry; tags and fusion partners are left off.
UniProt Q9QUI0: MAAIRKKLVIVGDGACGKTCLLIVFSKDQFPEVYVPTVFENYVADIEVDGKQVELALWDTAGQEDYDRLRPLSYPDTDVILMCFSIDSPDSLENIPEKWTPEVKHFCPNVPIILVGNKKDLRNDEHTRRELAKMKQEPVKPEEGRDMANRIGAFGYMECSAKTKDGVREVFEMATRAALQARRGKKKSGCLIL

Results are given in words; binding and its absence hold for the method and conditions named. Binding seen in cells or lysates may run through a third protein. Here binding means that the protein was enriched with, or labelled near, the bait; the list need not be complete.

The target in this assay is T1, p120-catenin (endogenous, mILC-1 cells) (mouse (endogenous in mILC-1)) (UniProt P30999).
T1 sequence: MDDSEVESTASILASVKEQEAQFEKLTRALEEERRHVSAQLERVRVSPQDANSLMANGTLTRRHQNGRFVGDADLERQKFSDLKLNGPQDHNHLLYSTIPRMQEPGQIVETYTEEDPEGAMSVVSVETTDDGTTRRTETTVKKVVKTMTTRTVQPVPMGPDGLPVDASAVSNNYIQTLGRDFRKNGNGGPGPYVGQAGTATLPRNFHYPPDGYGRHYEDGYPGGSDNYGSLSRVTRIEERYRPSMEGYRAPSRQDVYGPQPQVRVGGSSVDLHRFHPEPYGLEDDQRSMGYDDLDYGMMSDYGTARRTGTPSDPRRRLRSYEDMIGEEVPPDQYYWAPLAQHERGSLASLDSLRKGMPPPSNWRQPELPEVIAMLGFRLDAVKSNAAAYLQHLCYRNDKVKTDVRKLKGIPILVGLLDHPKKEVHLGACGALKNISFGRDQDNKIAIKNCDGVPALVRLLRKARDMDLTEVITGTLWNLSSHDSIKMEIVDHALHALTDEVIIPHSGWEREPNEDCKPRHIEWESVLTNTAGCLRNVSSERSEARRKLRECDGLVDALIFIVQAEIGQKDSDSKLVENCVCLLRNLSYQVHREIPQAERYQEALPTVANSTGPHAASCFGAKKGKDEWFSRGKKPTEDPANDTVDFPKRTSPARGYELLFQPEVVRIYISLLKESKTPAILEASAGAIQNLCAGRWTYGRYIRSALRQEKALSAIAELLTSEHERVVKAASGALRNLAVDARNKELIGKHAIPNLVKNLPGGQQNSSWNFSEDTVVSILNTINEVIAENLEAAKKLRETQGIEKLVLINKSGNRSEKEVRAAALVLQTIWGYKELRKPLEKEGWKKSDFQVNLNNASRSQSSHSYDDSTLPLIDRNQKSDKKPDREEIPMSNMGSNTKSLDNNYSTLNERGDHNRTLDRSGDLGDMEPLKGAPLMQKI
The experiment in a line: affinity purification with mass spectrometry; p120 immunoprecipitation from mILC-1 lysates, gel bands analysed by LC-tandem MS, Mascot search of the IPI mouse database.

Turning to “RhoA (endogenous, mILC-1 cells) (from UniProt Q9QUI0 1-193)”, the binding result is listed as “binds”.

B1: ARHGAP11A (MP-GAP) (endogenous, mILC-1 cells) (protein, UniProt Q80Y19 1-987)
chain: MWDQRLVRLALLQQLRAVYGIKVKGGRGQCDRRRHETAATEIKGKVFGVPFNSLPHSVVPEFGHIPSFLVDACASLKEHIHTEGLFRKSGSVVRLKALKSKLDQGEACLSSALPCDVAGLLKQFFRELPEPVLPADLHEALFKAQQLGAEERNKATLLLSCLMANPTVDILRYFFNFLKSVSLRASENKMDSSNLAVIFAPNLLQTSEGHEKMSANTEKKLRLQAAVVQTFIDCASDIGRVPDFILEKIPAMLGIDGLCTTPSLEGFEGDFETPGECKRKRRQSVGDFVNGALNKLKSSRTPSITPQQDRTAQASASPLILTPSVKRKLPGESSHAFSSKKRKSIKHNLNFELLPSHFFSSNSTPVSVHLDTSPDGSSQTSLSPIAMSGNHLVSTELRRSKRIASKKVYRVESGKAGCFSPKVSRKEKTRRSLRLKFSLGKNRDSDGCSVINRYENVGRRLANQQNLKSRIDSVKTGLLFSPDIDERLLKKGSEKISKSEEHLLTPDQLDGTGYRMSWTEPSNSSFQDMSANGTSPIMQNLEVKSFSLEPDITVEKSPVVSCELRPSTFHSQPDSSVLSLSGDEGNLASETLQKIQKAFSESGSDLHMVINHEQSSVTNTGEEVEFRDVTVTESKGHDGSCAGEEENCPSERNFSPDQSPEFAREADEECYSTQMKVECEGLHSETPKADPLILQAFPGEEPAEEPQSPRNQLSTPSRGNENGGESAGASGAPGEDESTCSVAVLSKPRPQRLSRQQSLVEKCDSVAPGALQVTEHGKVSDHIQWFNKLSLNEPNRGKVKSPLKFQRTPVRQSVRRINSLLEYGRQPVRQKLAIFGDAASPLVKSVSCDSALPSCVQNTSKGPTAPLITSGLEAQKSTSCNKSSVELTSKSFTKMKRHPDPLSASLGTPRLCKQENKSNGHIKFPLDDLTNHERLKFVVNNNVAFSPGMKNRVVRKPSEKERVWYKGSPKNPIGKTQLLPTSKPVDL
As for B1, the binding entry was “binds”.

B2: Anillin (endogenous, mILC-1 cells) (protein, UniProt Q8K298 1-1121)
chain: MDPFTEKLLERTRARRENLQRKMAERPTAVARSAPHAKRGREPLSEASNQQQPLPGGEEKSCTKPSPSKKRCSDKIEVGAPDLENTEPIDVAKPCSPMPAPRQAKPPAPAAISESVAAPAALLSADRGLNSGSEASATSSVKTRMQRLAEQRRHWDSDLTDDVSESSYFAPVPTEDKAASPSKPPISNASATPVGRRGRLANLAATICSWEDDVSHSSAKQNSVQEQPGTACLSKSSSASGASASINSSSVQQEATCCSPRDGNASVRKDPSSNAAHGPLLSASVSSSVKASSPVTAATFITENREAQNPELLHKTASPLKTEARKPCEKPTLSQGAQPKEEANREVCLQSQSKDKLATPGGRGIKPFLERFGERCQEHSKESPSYRASHKTPNITPNTKAIQERLFKQNTCSSTTHLAQQLKQEREKELACLRGRLDKGNLWSAEKNEKSRSKHLETKQEVHCQNTPLKKHQTVASTPLTSVTDKVAENEPAVKLSSTEPAGSTESEMTKSSPLKITLFLEEEKSLKVASDLEVEQNTEAVREVEMSVDDEDINSSRVINDIFSDVLEEGELDVEKSQEEMDQVGAENSEEQEDALNISSMSLLAPLAQTVGVVSLENVISSPPSELRDSNLSAASPKPGKFQRTRVPRAESADSLGSEDRDLLYSIDAYRSQRFKETERPSIKQVIVRKEDVTSKLGEKKNVFSGQVNIKQKMQELNNDINLQQTVIYQASQALNCCVDEEHGKGSLEEAEAERLLLIATEKRALLIDELNKLKSEGPQRRNKTSVISQSEFAPSKGSVTLSEICLPLKADFVCSTAQKTDASNYYYLIMLKAGAEQMVATPLASTANSLSGDALTFPTTFTLHDVSNDFEINIEVYSLVQKKDSLGPDKKKKASKSKAITPKRLLTSITSKSSLHSSVMASPGGLGAVRTSNFTLVGSHTLSLSSVGDTKFALDKVPFLSPLEGHICLKISCQVNSAVEEKGFLTIFEDVSGFGAWHRRWCVLSGNCISYWTYPDDERRKNPIGRINLANCISHQIEPANREFCARRNTLELITVRPQREDDRETLVSQCRDTLCVTKNWLSADTKEERDLWMQKLNQVIVDIRLWQPDACYKPVGKP
Turning to B2, the binding result is given as “binds”.

B3: mitotic kinesin-like protein 1 (endogenous, mILC-1 cells) (protein, UniProt E9Q5G3 1-953)
chain: MKSAKAKTVRKPVIKKGSQTNLKDPVGVYCRVRPLSFPDQECCVEVINSTTLQLHTPEGYRLNRNGDYKETQYSFKRVFGTHTTQKELFDVVANPLVDDLIHGKNGLLFTYGVTGSGKTYTMTGSPGSGGLLPRCLNMIFNSIGSFQAKRYVFKSNDRNSMEIQCEVDALLERQKREALPIPKTPSSKRQADPEFADMINVQEFCKAEEVDEDSVYGVFVSYIEIYNNYIYDLLEEVQFDPIKPKLPQSKTLREDKNHNMYVAGCTEVEVKSTEEAFEVFWRGQKKRRIANTHLNRESSRSHSVFSIKLVQAPLDADGDNVLQEKEQITISQLSLVDLAGSERTNRTKAEGNRLREAGNINQSLMTLRTCMEVLRENQTYGTNKMVPYRDSKLTHLFKNYFDGEGKVRMIVCVNPKAEDYEESLQVMRFAEVTQEVEVARPVDKVICGLTPGRRYRNLPRGGPVGDEPLVPEVILQSFPPLPPCKLLDINDEETLPKLADTLEKRHHLRQLMTEDLNKKCLAFKALLKEFDNSLSNKENYVQEKLNEREKVISGQKLEIERLEKKNKTLEYKIEILEKTTTIYEEDKRNLQQELESQNQKLQRQFSDKRRLEARLQGMVTETSMKWQKECERRVAATQLEMQNKLWVKDEKLKQLKAIVTEPKPEKPERPSRERDREKIIPRSVSPSPLPLSSNNIAQISNGQQLMSQPQLHRRSNSCSSISVASCISEWEQKLSPFSTPVNVTSLARHRQQEPGQSKTCIVSDRRRGMCWTEGREMVPTFSSEIGVEEDHCRRNTPIPVRHRRSRSAGSRWVDHKPASNVQTETVMQPHVPHAITVSVANEKALAKCEKYMLTHQELASDGEIQTKVIKGDVYKTRGGGQSVQFTDIETLKQELPTGSRKRRSSTLAPAQPDGTESEWTDVETRCSVAVEMRAGSQLGPGYQHHAQPKRKKP
As for B3, the binding result was “binds”.
